Data on 1 substance can be found in article PMC4868709.

Sequences of proteins named here, by UniProt entry; tags and fusion partners are left off.
UniProt Q8IZD9: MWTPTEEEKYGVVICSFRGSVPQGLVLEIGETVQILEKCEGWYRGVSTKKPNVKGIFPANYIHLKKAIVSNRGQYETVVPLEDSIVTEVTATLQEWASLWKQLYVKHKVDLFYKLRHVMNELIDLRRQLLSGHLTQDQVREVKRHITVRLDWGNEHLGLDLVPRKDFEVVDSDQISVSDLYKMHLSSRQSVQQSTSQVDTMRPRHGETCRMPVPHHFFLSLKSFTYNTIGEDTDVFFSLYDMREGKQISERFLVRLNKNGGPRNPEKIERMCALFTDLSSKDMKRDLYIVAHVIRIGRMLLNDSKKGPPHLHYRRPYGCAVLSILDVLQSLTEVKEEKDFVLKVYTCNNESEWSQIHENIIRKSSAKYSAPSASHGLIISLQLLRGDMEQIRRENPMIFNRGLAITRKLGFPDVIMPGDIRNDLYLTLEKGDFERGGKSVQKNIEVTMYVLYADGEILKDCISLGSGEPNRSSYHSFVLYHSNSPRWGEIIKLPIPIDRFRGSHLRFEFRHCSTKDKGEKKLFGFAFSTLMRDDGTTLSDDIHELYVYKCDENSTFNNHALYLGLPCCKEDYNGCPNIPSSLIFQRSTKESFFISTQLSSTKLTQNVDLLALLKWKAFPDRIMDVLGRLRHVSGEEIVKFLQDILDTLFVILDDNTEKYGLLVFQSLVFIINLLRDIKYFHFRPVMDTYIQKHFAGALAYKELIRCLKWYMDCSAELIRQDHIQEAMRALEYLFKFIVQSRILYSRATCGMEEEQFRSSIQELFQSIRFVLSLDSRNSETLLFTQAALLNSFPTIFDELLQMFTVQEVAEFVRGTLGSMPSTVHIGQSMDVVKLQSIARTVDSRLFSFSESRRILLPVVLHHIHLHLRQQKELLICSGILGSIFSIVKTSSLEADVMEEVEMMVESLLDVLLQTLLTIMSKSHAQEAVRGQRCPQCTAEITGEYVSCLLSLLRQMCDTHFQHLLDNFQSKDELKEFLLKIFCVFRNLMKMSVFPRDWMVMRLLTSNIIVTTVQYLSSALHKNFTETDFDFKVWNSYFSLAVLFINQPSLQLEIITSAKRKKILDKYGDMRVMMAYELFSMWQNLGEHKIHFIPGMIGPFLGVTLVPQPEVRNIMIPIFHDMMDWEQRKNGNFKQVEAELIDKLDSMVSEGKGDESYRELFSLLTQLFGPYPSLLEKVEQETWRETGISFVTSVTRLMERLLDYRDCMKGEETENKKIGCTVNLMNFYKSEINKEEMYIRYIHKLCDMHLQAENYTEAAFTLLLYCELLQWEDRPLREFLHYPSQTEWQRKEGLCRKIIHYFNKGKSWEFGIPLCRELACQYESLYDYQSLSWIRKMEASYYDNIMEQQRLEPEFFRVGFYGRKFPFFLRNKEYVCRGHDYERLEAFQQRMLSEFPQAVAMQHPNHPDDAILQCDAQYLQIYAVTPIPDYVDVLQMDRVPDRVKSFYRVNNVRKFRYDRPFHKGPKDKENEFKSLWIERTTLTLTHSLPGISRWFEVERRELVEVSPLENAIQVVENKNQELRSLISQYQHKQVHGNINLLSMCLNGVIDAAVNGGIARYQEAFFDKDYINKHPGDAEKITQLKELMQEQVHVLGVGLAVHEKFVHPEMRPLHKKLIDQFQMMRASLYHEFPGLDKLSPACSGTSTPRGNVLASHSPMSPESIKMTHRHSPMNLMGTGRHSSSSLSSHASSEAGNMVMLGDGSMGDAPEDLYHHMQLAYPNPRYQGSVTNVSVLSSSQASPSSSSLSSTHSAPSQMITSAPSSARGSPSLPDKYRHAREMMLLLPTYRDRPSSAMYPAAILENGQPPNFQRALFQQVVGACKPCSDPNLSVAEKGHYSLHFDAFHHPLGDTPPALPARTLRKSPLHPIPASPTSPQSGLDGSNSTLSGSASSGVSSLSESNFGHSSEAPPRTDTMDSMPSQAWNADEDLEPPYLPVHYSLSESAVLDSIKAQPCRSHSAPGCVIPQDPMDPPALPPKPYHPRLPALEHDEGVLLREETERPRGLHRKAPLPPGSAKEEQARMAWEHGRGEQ
UniProt P61586: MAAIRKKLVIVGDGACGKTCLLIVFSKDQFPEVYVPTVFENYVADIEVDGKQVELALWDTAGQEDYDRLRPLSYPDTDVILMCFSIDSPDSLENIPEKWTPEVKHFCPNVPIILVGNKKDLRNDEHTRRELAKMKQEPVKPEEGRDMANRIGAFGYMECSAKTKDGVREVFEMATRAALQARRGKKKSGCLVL

This test concerns the target dedicator of cytokinesis 3 (DOCK3) (human (endogenous; the cell line is not named, all lines used are human)) (UniProt Q8IZD9). Description: co-IP; co-immunoprecipitation of endogenous proteins, Western blot.

No constants are given. Whether binding was seen depends on the method and setting. In cells and extracts the contact can be indirect. Some entries that bind do so weakly or less than the wild type.

As for RhoA (from UniProt P61586 1-193), the binding entry is recorded as “binds weakly”.
